Measurements: PMC3520120
Results are given in words; binding and its absence hold for the method and conditions named. In cells and extracts the contact can be indirect. Some results given as binding are weak or reduced against the parent protein; the word gives no strength. For part of these data: Sequences can lack the tags named with a protein.

Key:
[1] = target: endogenous APP of HEK cells (human (endogenous in HEK)) (UniProt P05067); test: co-IP; lysates of transfected HEK cells (both partners co-expressed, or LRP10-HA alone with endogenous APP); 50 mM Tris pH 7.4, 150 mM NaCl, 1% NP-40; precipitation with anti-HA, anti-APP or anti-FLAG overnight at 4°C, protein A- or G-Sepharose; immunoblot
[2] = target: GST-APP N-term (extracellular/luminal region of APP695) (UniProt P05067); test: pull-down; GST fusion proteins (10 μg) immobilised on glutathione-Sepharose 4B beads, incubated 2 h at 4°C with 35S-labelled in vitro translated LRP10 in 20 mM Tris-HCl pH 7.4, 150 mM NaCl, 3 mM EDTA, 0.1% NP-40, 1 mM DTT; autoradiography; only the target purified
[3] = target: GST-APP695 C-term (cytoplasmic region of APP) (UniProt P05067); test: as above

| binding [1] | binding [2] | binding [3] | Binder |
| --- | --- | --- | --- |
| binds |  |  | HA-tagged LRP10 (LDLR-related protein 10), wild type (receptor, UniProt Q7Z4F1 17-713) HPDRIIFPNHACEDPPAVLLEVQGTLQRPLVRDSRTSPANCTWLILGSKEQTVTIRFQKLHLACGSERLTLRSPLQPLISLCEAPPSPLQLPGGNVTITYSYAGARAPMGQGFLLSYSQDWLMCLQEEFQCLNHRCVSAVQRCDGVDACGDGSDEAGCSSDPFPGLTPRPVPSLPCNVTLEDFYGVFSSPGYTHLASVSHPQSCHWLLDPHDGRRLAVRFTALDLGFGDAVHVYDGPGPPESSRLLRSLTHFSNGKAVTVETLSGQAVVSYHTVAWSNGRGFNATYHVRGYCLPWDRPCGLGSGLGAGEGLGERCYSEAQRCDGSWDCADGTDEEDCPGCPPGHFPCGAAGTSGATACYLPADRCNYQTFCADGADERRCRHCQPGNFRCRDEKCVYETWVCDGQPDCADGSDEWDCSYVLPRKVITAAVIGSLVCGLLLVIALGCTCKLYAIRTQEYSIFAPLSRMEAEIVQQQAPPSYGQLIAQGAIPPVEDFPTENPNDNSVLGNLRSLLQILRQDMTPGGGPGARRRQRGRLMRRLVRRLRRWGLLPRTNTPARASEARSQVTPSAAPLEALDGGTGPAREGGAVGGQDGEQAPPLPIKAPLPSASTSPAPTTVPEAPGPLPSLPLEPSLLSGVVQALRGRLLPSLGPPGPTRSPPGPHTAVLALEDEDDVLLVPLAEPGVWVAEAEDEPLLT |
|  | binds | binds weakly | ^35S-labeled in vitro-translated LRP10 (receptor, UniProt Q7Z4F1 1-713, 35S-labelled methionine and cysteine) MLLATLLLLLLGGALAHPDRIIFPNHACEDPPAVLLEVQGTLQRPLVRDSRTSPANCTWLILGSKEQTVTIRFQKLHLACGSERLTLRSPLQPLISLCEAPPSPLQLPGGNVTITYSYAGARAPMGQGFLLSYSQDWLMCLQEEFQCLNHRCVSAVQRCDGVDACGDGSDEAGCSSDPFPGLTPRPVPSLPCNVTLEDFYGVFSSPGYTHLASVSHPQSCHWLLDPHDGRRLAVRFTALDLGFGDAVHVYDGPGPPESSRLLRSLTHFSNGKAVTVETLSGQAVVSYHTVAWSNGRGFNATYHVRGYCLPWDRPCGLGSGLGAGEGLGERCYSEAQRCDGSWDCADGTDEEDCPGCPPGHFPCGAAGTSGATACYLPADRCNYQTFCADGADERRCRHCQPGNFRCRDEKCVYETWVCDGQPDCADGSDEWDCSYVLPRKVITAAVIGSLVCGLLLVIALGCTCKLYAIRTQEYSIFAPLSRMEAEIVQQQAPPSYGQLIAQGAIPPVEDFPTENPNDNSVLGNLRSLLQILRQDMTPGGGPGARRRQRGRLMRRLVRRLRRWGLLPRTNTPARASEARSQVTPSAAPLEALDGGTGPAREGGAVGGQDGEQAPPLPIKAPLPSASTSPAPTTVPEAPGPLPSLPLEPSLLSGVVQALRGRLLPSLGPPGPTRSPPGPHTAVLALEDEDDVLLVPLAEPGVWVAEAEDEPLLT |
